These are yes or no findings as the source states them, for the method shown. Some binding calls cover weakened binding; strength is not graded here. For part of these data: Where a sequence is shown, tags or fusion partners need not be part of it.
What was measured:
Ring1A [1] = target: T1, Ring1A (mouse, UniProt O35730 1-406); assay: two-step purification (anti-FLAG affinity, gel filtration) from Sf9 cells, silver stain (FIG. 10A); association within a complex
T1 construct: mature; Untagged protein: 35S-labelled in vitro translation product in the GST pull-down; baculovirus-expressed in Sf9 cells in the co-purifications; also called Ring1/Ring1A
T1 sequence (looked up): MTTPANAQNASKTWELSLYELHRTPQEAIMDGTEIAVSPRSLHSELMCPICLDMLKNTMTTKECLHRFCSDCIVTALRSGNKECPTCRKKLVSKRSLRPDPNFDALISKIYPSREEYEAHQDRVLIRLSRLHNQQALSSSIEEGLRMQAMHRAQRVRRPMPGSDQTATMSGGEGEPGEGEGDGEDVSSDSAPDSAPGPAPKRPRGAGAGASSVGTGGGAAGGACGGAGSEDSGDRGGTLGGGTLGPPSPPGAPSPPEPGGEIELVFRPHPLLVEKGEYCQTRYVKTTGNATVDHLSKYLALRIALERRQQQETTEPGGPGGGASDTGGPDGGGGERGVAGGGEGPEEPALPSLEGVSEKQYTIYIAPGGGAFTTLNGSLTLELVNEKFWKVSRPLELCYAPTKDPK

Ring1B [2] = target: T2, Ring1B (mouse, UniProt Q9CQJ4 2-336); assay: as above
T2 construct: mature; Untagged protein: 35S-labelled in vitro translation product (pCITE, full-length cDNA) in the GST pull-down; baculovirus-expressed in Sf9 cells in the co-purifications; also called Ring2; Ring2/Ring1B
T2 sequence (looked up): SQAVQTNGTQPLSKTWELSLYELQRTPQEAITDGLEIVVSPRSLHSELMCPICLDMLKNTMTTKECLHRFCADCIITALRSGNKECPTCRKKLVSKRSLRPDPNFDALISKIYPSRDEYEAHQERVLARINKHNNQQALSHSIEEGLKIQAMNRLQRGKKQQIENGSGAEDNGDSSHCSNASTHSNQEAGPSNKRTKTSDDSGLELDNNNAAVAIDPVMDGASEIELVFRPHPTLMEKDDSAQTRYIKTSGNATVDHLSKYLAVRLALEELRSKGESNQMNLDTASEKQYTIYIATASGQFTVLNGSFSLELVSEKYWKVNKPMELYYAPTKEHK

Pc3 (mouse) [3] = target: T3, Pc3 (mouse) (UniProt Q9QXV1); assay: as above
T3 sequence (looked up): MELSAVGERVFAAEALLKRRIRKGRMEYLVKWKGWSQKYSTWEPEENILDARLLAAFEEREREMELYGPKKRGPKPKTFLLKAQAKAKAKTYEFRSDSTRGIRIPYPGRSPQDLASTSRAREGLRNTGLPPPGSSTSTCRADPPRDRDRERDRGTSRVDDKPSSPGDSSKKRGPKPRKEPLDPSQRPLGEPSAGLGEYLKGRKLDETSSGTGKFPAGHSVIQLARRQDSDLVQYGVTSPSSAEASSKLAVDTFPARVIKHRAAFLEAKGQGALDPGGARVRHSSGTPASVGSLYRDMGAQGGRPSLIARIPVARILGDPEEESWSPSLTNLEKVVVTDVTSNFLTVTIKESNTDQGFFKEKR

Ring1A [4] = target: T1, Ring1A; assay: co-expression in Sf9 cells, anti-FLAG purification (FIG. 7B); association within a complex
Ring1B [5] = target: T2, Ring1B; assay: as above
Ring1A [6] = target: T1, Ring1A; assay: co-infection of Sf9 cells, anti-FLAG affinity chromatography and gel filtration, silver stain (FIG. 6B); association within a complex
Ring1B [7] = target: T2, Ring1B; assay: as above
Pc3 (mouse) [8] = target: T3, Pc3 (mouse); assay: as above
Ring1A [9] = target: T1, Ring1A; assay: co-expression in Sf9 cells, anti-FLAG affinity purification and S6 gel filtration, silver stain (FIG. 6B); association within a complex
Ring1B [10] = target: T2, Ring1B; assay: as above
Pc3 (mouse) [11] = target: T3, Pc3 (mouse); assay: as above
Ring1A [12] = target: T1, Ring1A; assay: co-infection of Sf9 cells, FLAG-antibody beads and gel filtration, silver stain (FIG. 13B); association within a complex
Ring1B [13] = target: T2, Ring1B; assay: as above
Pc3 (mouse) [14] = target: T3, Pc3 (mouse); assay: as above
Ring1A [15] = target: T1, Ring1A; assay: silver stained gel of the reconstituted Mel-18 containing complex (FIG. 13B)
Ring1B [16] = target: T2, Ring1B; assay: as above
Pc3 (mouse) [17] = target: T3, Pc3 (mouse); assay: as above
Ring1B [18] = target: T2, Ring1B; assay: purification of two-component complexes from infected insect cells (FIG. 13D)

Measured: binding

B1: FLAG®-Bmi-1 (protein, mouse)
chain: DYKDDDDKMHRTTRIKITELNPHLMCVLCGGYFIDATTIIECLHSFCKTCIVRYLETSKYCPICDVQVHKTRPLLNIRSDKTLQDIVYKLVPGLFKNEMKRRRDFYAAHPSADAANGSNEDRGEVADEEKRIITDDEIISLSIEFFDQSRLDRKVNKEKPKEEVNDKRYLRCPAAMTVMHLRKFLRSKMDIPNTFQIDVMYEEEPLKDYYTLMDIAYIYTWRRNGPLPLKYRVRPTCKRMKMSHQRDGLTNAGELESDSGSDKANSPAGGVPSTSSCLPSPSTPVQSPHPQFPHISSTMNGTSNSPSANHQSSFASRPRKSSLNGSSATSSG
not listed: Ring1A [12] | Ring1B [13] | Pc3 (mouse) [14] | Ring1A [15] | Ring1B [16] | Pc3 (mouse) [17] | Ring1B [18]
binds: all other assays above

B2: Flag-Mel-18 (protein)
chain: DYKDDDDKMHRTTRIKITELNPHLMCALCGGYFIDATTIVECLHSFCKTCIVRYLETNKYCPMCDVQVHKTRPLLSIRSDKTLQDIVYKLVPGLFKDEMKRRRDFYAAYPLTEVPNGSNEDRGEVLEQEKGALGDDEIVSLSIEFYEGVRDREEKKNLTENGDGDKEKTGVRFLRCPAAMTVMHLAKFLRNKMDVPSKYKVEILYEDEPLKEYYTLMDIAYIYPWRRNGPLPLKYRVQPACKRLTLPTVPTPSEGTNTSGASECESVSDKAPSPATLPATSSSLPSPATPSHGSPSSHGPPATHPTSPTPPSTAAGTTTATNGGTSNCLQTPSSTSRGRKMTVNGAPCPP
binds: Ring1A [12] | Ring1B [13] | Pc3 (mouse) [14] | Ring1A [15] | Ring1B [16] | Pc3 (mouse) [17]

B3: Mel-18 (protein, UniProt P23798 1-342, looked up)
chain: MHRTTRIKITELNPHLMCALCGGYFIDATTIVECLHSFCKTCIVRYLETNKYCPMCDVQVHKTRPLLSIRSDKTLQDIVYKLVPGLFKDEMKRRRDFYAAYPLTEVPNGSNEDRGEVLEQEKGALGDDEIVSLSIEFYEGVRDREEKKNLTENGDGDKEKTGVRFLRCPAAMTVMHLAKFLRNKMDVPSKYKVEILYEDEPLKEYYTLMDIAYIYPWRRNGPLPLKYRVQPACKRLTLPTVPTPSEGTNTSGASECESVSDKAPSPATLPATSSSLPSPATPSHGSPSSHGPPATHPTSPTPPSTAAGTTTATNGGTSNCLQTPSSTSRGRKMTVNGAPCPP
binds: Ring1B [18]
